Reference: PubChem BioAssay AID504466 (National Center for Advancing Translational Sciences (NCATS), 2011)
The whole screen tested about 330,000 compounds, of which about 4,200 (1.3%) were called active. Only results without a clear call are listed here; the source files them as inconclusive. Calls come from the whole dose curve; as a rule, active = well fitted activation curve with a large enough effect; inconclusive = small, poorly fitted or top-dose-only effect; inactive = no such curve, though single readings can be large or run the other way.

assay: qHTS screen for small molecules that induce genotoxicity in human embryonic kidney (HEK293T) cells expressing luciferase-tagged ELG1; settings: HEK293T ELG1-luciferase reporter, luminescence, 16 h; note: nearly all actives have a fitted effect of over 60% in size
Text: NIH Molecular Libraries Probe Production Network [MLPCN] NIH Chemical Genomics Center [NCGC] MLPCN Grant: 1 R03 MH092164-01 Assay Provider: Kyungjae Myung, NHGRI, NIH Keywords: MLPCN, qHTS, NCGC, genotoxicity, cancer Assay Overview: Cancer cells divide rapidly compared to normal cells in the body. During cell division, cancer cells need to duplicate their genome by DNA replication. The failure of genome duplication leads to cancer cells' death. Therefore, inhibitors of DNA replication could specifically kill cancer cells. Based on this concept, many chemotherapeutic agents were developed and have been used to treat cancer patients. However, there are a limited number of agents available in the clinical setting, and some of those that do exist have low efficacy and severe side effects. […] With this in mind, we developed a quantitative high-throughput ELG1-luciferase reporter gene assay. […]
Assay Protocol Summary: For genotoxicity screening, 2,000 cells in 5 uL/well were dispensed into white, solid-bottom 1536-well plates using a solenoid-based dispenser. […] 5 ul ONE-Glo (Promega) was then added to each plate and following a 30 min incubation at room temperature, luciferase activity was quantified on a ViewLux CCD-based plate reader.
Potency is the fitted concentration of half-maximal effect.

Row | Structure (SMILES) | Potency
1 | O=C(NCC1(N2CCCCC2)CCCCC1)c1ccc(OC(F)F)cc1 | inconclusive: 23.1 µM
2 | O=C(NCC1(N2CCCCC2)CCCCC1)c1ccc(F)cc1 | inconclusive: 3.66 µM
